# Reference: PubChem BioAssay AID504467 (National Center for Advancing Translational Sciences (NCATS), 2011)
# The campaign covered roughly 330,000 compounds. About 7,700 (2.3%) were called active. The shares of active, inactive and inconclusive entries below differ from those in the screen. Calls follow the shape of the dose curve; as a rule, active = well fitted inhibition curve with a large enough effect; inconclusive = small, poorly fitted or top-dose-only effect, or effect the other way; inactive = flat fitted curve, though single readings scatter. Potencies beside an inconclusive call are fits to weak or partial responses and may not hold up.
# Assay: qHTS screen for small molecules that inhibit ELG1-dependent DNA repair in human embryonic kidney (HEK293T) cells expressing luciferase-tagged ELG1; also: nearly all actives have a fitted effect of over 55% in size
# Conditions: HEK293T ELG1-luciferase reporter, luminescence, 16 h, DNA damage induced by 5-fluorouridine; series mostly up to 46.1 µM
# From the text: NIH Molecular Libraries Probe Production Network [MLPCN] NIH Chemical Genomics Center [NCGC] MLPCN Grant: 1 R03 MH092164-01 Assay Provider: Kyungjae Myung, NHGRI, NIH Keywords: MLPCN, qHTS, NCGC, genotoxicity, cancer Assay Overview: Cancer cells divide rapidly compared to normal cells in the body. During cell division, cancer cells need to duplicate their genome by DNA replication. The failure of genome duplication leads to cancer cells' death. Therefore, inhibitors of DNA replication could specifically kill cancer cells. Based on this concept, many chemotherapeutic agents were developed and have been used to treat cancer patients. However, there are a limited number of agents available in the clinical setting, and some of those that do exist have low efficacy and severe side effects. Therefore, if we can find the compounds that effectively block DNA replication either by directly damaging DNA or by inhibiting other cellular mechanisms, the options for cancer treatment will be broadened. With this in mind, we developed a quantitative high-throughput ELG1-luciferase reporter gene assay. Small molecules that specifically block ELG1 function in response to DNA damage can be identified by monitoring the suppression of luciferase activity. Since ELG1 defines a pathway for repairing DNA damage, agents blocking ELG1 function can be used to sensitize cancer cells to chemotherapeutic agents whose mechanism of action involves the induction of DNA damage.
# Assay Protocol Summary: For genotoxicity screening, 2,000 cells in 4 uL/well were dispensed into white, solid-bottom 1536-well plates using a solenoid-based dispenser. Following transfer of 1 uL 5-Fluorouridine and 23 nL compound or DMSO vehicle by a pin tool, the plates were incubated 16 hr at 37 °C and 5% CO2. 5 ul ONE-Glo (Promega) was then added to each plate and following a 30 min incubation at room temperature, luciferase activity was quantified on a ViewLux CCD-based plate reader.
# Potency is read from the fitted curve at half-maximal effect.
row,SMILES,Potency
1,COc1ccccc1C(=O)NNC(=O)C1CC=CCC1 (configuration not stated),"inconclusive: 16.4 µM [activator, single point]"
2,CCC(C)n1c(/C=C/c2ccccc2)nc2ccccc21 (configuration not stated),inactive
3,C=CCOc1ccc(/C=N/NC(=O)c2c(C)nc3ccc(Cl)cn23)cc1,inactive
4,NC(=NC(=O)c1ccccc1)N1CCOCC1,"inconclusive: 29.1 µM [activator, single point]"
5,Cc1ccc(S(=O)(=O)N2CCC(=O)CC2)cc1,inactive
6,COc1ccc2c(c1)c(=O)c(C(=O)c1ccccc1)cn2Cc1ccccc1,"inconclusive: 25.9 µM [inhibitor, single point]"
7,Cc1ccc(NC(=O)CSC2=C(C#N)C(c3ccco3)CC(=O)N2)cc1 (configuration not stated),"inconclusive: 13 µM [activator, partial curve, poor fit]"
8,COc1ccccc1CNC(=O)CC1C(=O)NCCN1C1Cc2ccccc2C1 (configuration not stated),"inconclusive: 20.6 µM [activator, partial curve, poor fit]"
9,Cc1cc2c(c(N)n1)c(=O)oc1ccccc12,"inconclusive: 25.9 µM [activator, single point]"
10,Cc1ccc2occ(C(=O)c3ccco3)c(=O)c2c1,"inconclusive: 20.6 µM [activator, single point]"
11,CC(NC(=S)Nc1c(Cl)cccc1OC(F)F)C(C)(C)C (configuration not stated),inactive
12,CCc1nnc(NS(=O)(=O)c2ccc(NC(=O)OC)cc2)s1,inactive
13,Nc1nonc1-c1noc(CCCN2C(=O)c3ccccc3C2=O)n1,"inconclusive: 18.4 µM [activator, partial curve]"
14,COc1ccc(C(=O)/C=C/c2ccc(OC(=O)c3cc(OC)c(OC)c(OC)c3)cc2)cc1,inactive
15,CCn1c(SCC(=O)N2CCc3ccccc32)nnc1-c1c[nH]c2ccccc12,"inconclusive: 20 µM [inhibitor, partial curve, poor fit]"
16,O=C(/C=C/c1ccco1)Nc1cccnc1Cl,"inconclusive: 16.4 µM [activator, partial curve]"
17,COc1cccc(C(=O)/C=C/Nc2ccc(NC(C)=O)cc2)c1,"inconclusive: 18.4 µM [activator, partial curve]"
18,COc1cc(/C=N/NC(N)=O)ccc1OCC(=O)Nc1ccc(C)c(C)c1,inactive
19,CCCCN(CCCC)C(=O)c1cc(Cl)ccc1[N+](=O)[O-],inactive
20,COc1cc2[nH]c(=O)n(Cc3ccc(C(=O)NC4CCN(Cc5ccccc5)CC4)cc3)c(=O)c2cc1OC,"inconclusive: 20.6 µM [inhibitor, partial curve, poor fit]"
21,Cc1ccc(C(=O)N2CC(=O)Nc3ccc(F)cc3C2c2ccccc2)cc1[N+](=O)[O-] (configuration not stated),"inconclusive: 20.6 µM [inhibitor, single point]"
22,O=C(NCC(=O)N1CCOCC1)OCc1ccccc1,"inconclusive: 10.3 µM [activator, partial curve, poor fit]"
23,CC12CCC(=O)N1C(C(=O)N1CCN(c3ccccc3)CC1)CS2 (configuration not stated),inactive
24,Cc1ccc(N(CC(=O)N2CCc3ccccc3C2)S(C)(=O)=O)cc1,"inconclusive: 0.184 µM [inhibitor, single point]"

# Among those listed so far, 10 contain a carbonyl joined to an NH by a bond outside any ring:
row,SMILES,Potency
1,COc1ccccc1C(=O)NNC(=O)C1CC=CCC1 (configuration not stated),"inconclusive: 16.4 µM [activator, single point]"
3,C=CCOc1ccc(/C=N/NC(=O)c2c(C)nc3ccc(Cl)cn23)cc1,inactive
7,Cc1ccc(NC(=O)CSC2=C(C#N)C(c3ccco3)CC(=O)N2)cc1 (configuration not stated),"inconclusive: 13 µM [activator, partial curve, poor fit]"
8,COc1ccccc1CNC(=O)CC1C(=O)NCCN1C1Cc2ccccc2C1 (configuration not stated),"inconclusive: 20.6 µM [activator, partial curve, poor fit]"
12,CCc1nnc(NS(=O)(=O)c2ccc(NC(=O)OC)cc2)s1,inactive
16,O=C(/C=C/c1ccco1)Nc1cccnc1Cl,"inconclusive: 16.4 µM [activator, partial curve]"
17,COc1cccc(C(=O)/C=C/Nc2ccc(NC(C)=O)cc2)c1,"inconclusive: 18.4 µM [activator, partial curve]"
18,COc1cc(/C=N/NC(N)=O)ccc1OCC(=O)Nc1ccc(C)c(C)c1,inactive
20,COc1cc2[nH]c(=O)n(Cc3ccc(C(=O)NC4CCN(Cc5ccccc5)CC4)cc3)c(=O)c2cc1OC,"inconclusive: 20.6 µM [inhibitor, partial curve, poor fit]"
22,O=C(NCC(=O)N1CCOCC1)OCc1ccccc1,"inconclusive: 10.3 µM [activator, partial curve, poor fit]"

# (cont.)

row,SMILES,Potency
1,O=C(COc1ccccc1)N/N=C/c1ccc(O[C@@H]2O[C@H](CO)[C@@H](O)[C@H](O)[C@H]2O)cc1,"inconclusive: 25.9 µM [activator, single point]"
2,CC1C/C(=N/NC(=O)c2cccc(F)c2)c2ccc(O)cc2C1 (configuration not stated),inactive
3,CC(=O)NC(Cc1ccccc1)C(=O)OCC(=O)c1ccccc1 (configuration not stated),inactive
4,O=C(COC(=O)C1Cc2ccccc2CN1C(=O)c1ccccc1)Nc1ccc(SC(F)F)cc1 (configuration not stated),"inconclusive: 7.31 µM [inhibitor, partial curve, poor fit]"
5,O=C(Oc1ccc(=O)n(-c2ccccc2)n1)c1ccc(F)cc1,inactive
6,O=C(/C=C/c1ccc(Cl)cc1)NCc1ccco1,"inconclusive: 20.6 µM [activator, partial curve]"
7,CCCCN(CC(=O)Nc1cccc(S(=O)(=O)N2CCCC2)c1)Cc1nc2ccccc2c(=O)[nH]1,"inconclusive: 16.4 µM [inhibitor, single point]"
8,Cc1ccc(OCC(=O)N2CCc3ccccc32)cc1,"inconclusive: 6.51 µM [activator, partial curve]"
9,COc1ccc(CN2CCN(C(=O)Cn3nc(C(=O)O)c4ccccc4c3=O)CC2)cc1F,inactive
10,COc1cc(Cl)c(C)cc1NC(=O)COC(=O)C1=NN(c2ccccc2)C(=O)CC1,inactive
11,CCOC(=O)C1CCN(C(=O)Nc2ccc3c(c2)nc(C)n3C)CC1,"inconclusive: 20.6 µM [activator, partial curve, poor fit]"
12,COc1ccc(C(=O)Nn2cnc3scc(-c4cccs4)c3c2=O)c(O)c1,"inconclusive: 10.3 µM [activator, partial curve]"
13,COc1ccc(/C=N/NC(=O)c2cc(-c3ccccc3)nc3ccccc23)c(C(=O)O)c1OC,inactive
14,CN(C)/C=C\C(=C/C(=O)C(F)(F)F)Nc1ccccc1Oc1ccccc1,"inconclusive: 29.1 µM [inhibitor, single point]"
15,COCC(C)OC(=O)c1c(N)n(CCCN2CCOCC2)c2nc3ccccc3nc12 (configuration not stated),"inconclusive: 29.1 µM [inhibitor, partial curve, poor fit]"
16,Cc1csc(SCC(=O)Nc2ccccc2C)n1,inactive
17,CCN=C1Sc2nc3ccc(OCC)cc3cc2CN1CCOC,"inconclusive: 23.1 µM [inhibitor, single point]"
18,C[C@H](CO)N1C[C@H](C)[C@@H](CN(C)S(=O)(=O)c2cn(C)cn2)Oc2ccc(NC(=O)Cn3cnnn3)cc2C1=O,inactive
19,COc1cc(-c2noc(C3CCCN(C(=O)c4ccccc4)C3)n2)cc(OC)c1OC (configuration not stated),"inconclusive: 20.6 µM [inhibitor, single point]"
20,CC1Sc2ccc(C(=O)NCc3ccccn3)cc2NC1=O (configuration not stated),inactive
21,CCNC(=S)NS(=O)(=O)c1ccccc1,inactive
22,CN1CCN(c2ccc(NC(=O)c3ccc(Br)o3)cc2)CC1,"inconclusive: 18.3 µM [activator, partial curve]"
23,C=CCn1c(SCC(=O)Nc2c(C)n(C)n(-c3ccccc3)c2=O)nc2sc(C)c(-c3ccccc3)c2c1=O,"inconclusive: 29.1 µM [inhibitor, single point]"
24,N#Cc1ccc(-c2ccc(C3Nc4ccccc4C(=O)N3O)o2)cc1 (configuration not stated),inactive

row,SMILES,Potency
1,CCOC(=O)CCc1c(C)c(C#N)c2[nH]c3ccccc3n2c1=O,"inconclusive: 25.9 µM [inhibitor, single point]"
2,COc1ccc(CCC(=O)NCCS(=O)(=O)N2CCN(c3ccccc3F)CC2)cc1,"inconclusive: 11.6 µM [inhibitor, partial curve]"
3,O=S(=O)(Nc1nc2ccccc2nc1NCC1CCCO1)c1cccc(Cl)c1 (configuration not stated),"inconclusive: 29.1 µM [inhibitor, single point]"
4,O=C1CCc2cc(S(=O)(=O)NCCc3ccccc3)cc3c2N1CC3,"inconclusive: 4.11 µM [activator, single point]"
5,Cc1ccc(C)c(C(=O)O/N=C(\N)c2ccc(Br)cc2)c1,"inconclusive: 18.4 µM [activator, single point]"
6,CN(C(=O)Nc1cccc(C(F)(F)F)c1)C1CCCCC1,inactive
7,CC(C)C(=O)Nc1ccc(N2CCOCC2)c(S(=O)(=O)Nc2ccccc2Cl)c1,"inconclusive: 20.6 µM [inhibitor, partial curve]"
8,COCC1CCCCN1C(=O)c1cccc(OC2CCN(C(=O)C3CC3)CC2)c1 (configuration not stated),"inconclusive: 29.1 µM [activator, single point]"
9,CCOC(=O)Cc1csc(NC(=O)C(C)(C)CC)n1,"inconclusive: 16.4 µM [activator, partial curve]"
10,Cc1cc2cc(CN(Cc3ccco3)C(=O)C3CCCCC3)c(=O)[nH]c2cc1C,inactive
11,COCc1cc(=O)[nH]c(Cc2c(Cl)cccc2Cl)n1,inactive
12,Cc1cccc(NC(=O)c2nc[nH]c2C(=O)NCCCCNC(=O)c2[nH]cnc2C(=O)Nc2cccc(C)c2)c1,active: 5.17 µM
13,Cc1cccc(Oc2nc(-c3ccccn3)nc3ccccc23)c1,"inconclusive: 11.6 µM [inhibitor, partial curve]"
14,O=C1NCCc2c1[nH]c1ccc([N+](=O)[O-])cc21,"inconclusive: 5.17 µM [inhibitor, partial curve, poor fit]"
15,COc1ccc(C(=O)NC2CCCc3c2cnn3-c2ccc(C)c(C)c2)c(OC)c1OC (configuration not stated),active: 18.3 µM
16,CC(C)OC(=O)c1ccc2nc3ccccc3nc2c1,"inconclusive: 4.11 µM [activator, full curve]"
17,CC1CC(C)CN(C(=O)COC(=O)c2c[nH]c3ccccc23)C1 (configuration not stated),"inconclusive: 5.17 µM [activator, single point]"
18,COc1ccc(C(=O)NC(=S)NCc2cccnc2)cc1Br,"inconclusive: 18.3 µM [inhibitor, single point]"
19,NS(=O)(=O)c1cc(C(=O)OCC(=O)N2CCOCC2)ccc1Cl,inactive
20,CCn1c(-c2cc3ccccc3cc2O)n[nH]c1=S,inactive
21,CC1CCC(NC(=O)c2ccc3snnc3c2)CC1 (configuration not stated),"inconclusive: 16.4 µM [activator, single point]"
22,S=C1NC(c2ccccc2)N2C(=S)NC(c3ccccc3)N12 (configuration not stated),"inconclusive: 18.4 µM [activator, single point]"
23,Cn1c(=O)c2c(nc(N/N=C/c3cccs3)n2Cc2ccc(Br)cc2)n(C)c1=O,active: 20.6 µM
24,COc1ccc(C2C(C(C)=O)=C(O)C(=O)N2c2nccs2)cc1OC (configuration not stated),inactive

# No new results follow: an excerpt of the list.
row,SMILES,Potency
22,S=C1NC(c2ccccc2)N2C(=S)NC(c3ccccc3)N12 (configuration not stated),"inconclusive: 18.4 µM [activator, single point]"
23,Cn1c(=O)c2c(nc(N/N=C/c3cccs3)n2Cc2ccc(Br)cc2)n(C)c1=O,active: 20.6 µM
